Measured values reported in the supplement of paper PMC4604168 (melanoma cell lines).
This is one part of the list. Repeats are few or missing, and single values can be far off.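 Imaging used 1,536-well plates; nuclei positive for cleaved PARP by antibody were divided by total DNA-stained nuclei to yield the apoptosis fraction. Doses for screening kept most cells viable, and cell lines differ markedly in resting and induced cleaved-PARP levels.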

Experiments:
Test in all cases: cleaved PARP positive nuclei fraction relative to DMSO control; melanoma cells; higher = more apoptosis
Conditions in all cases: library dose: low library concentration; 72 h
[1] = tested on: MZ2-MEL
[2] = tested on: MeWo
[3] = tested on: RPMI7951
[4] = tested on: RVH-421
[5] = tested on: SkMel28
[6] = tested on: SkMel30
[7] = tested on: SkMel5
[8] = tested on: UACC257
[9] = tested on: UACC62

Row | SMILES | cleaved PARP positive nuclei fraction [1] [%] | cleaved PARP positive nuclei fraction [2] [%] | cleaved PARP positive nuclei fraction [3] [%] | cleaved PARP positive nuclei fraction [4] [%] | cleaved PARP positive nuclei fraction [5] [%] | cleaved PARP positive nuclei fraction [6] [%] | cleaved PARP positive nuclei fraction [7] [%] | cleaved PARP positive nuclei fraction [8] [%] | cleaved PARP positive nuclei fraction [9] [%]
1 | N#Cc1c(O)c2c(-c3ccc(-c4ccccc4O)cc3)csc2[nH]c1=O + CCCCCCCCCCCC1=C(O)C(=O)C=C(O)C1=O [Embelin] (first compound 2 µM, partner dose 1.2 µM) | 182 | 32.4 | 70.8 | 85.9 | 99.2 | 16.2 | 38.2 | 41 | 98.2
2 | COC(=O)c1sccc1S(=O)(=O)Nc1ccc(Nc2ccccc2)cc1OC + COc1cc(N2CCC(N3CCN(C)CC3)CC2)ccc1Nc1ncc(Cl)c(Nc2ccccc2S(=O)(=O)C(C)C)n1 [NVP-TAE684] (first compound 1 µM, partner dose 0.08 µM) | 116 | 28.7 | 89.3 | 32.8 | 244 | 16.4 | 76 | 191 | 184
3 | N#Cc1c(O)c2c(-c3ccc(-c4ccccc4O)cc3)csc2[nH]c1=O + c1cc(-c2cnn3cc(-c4ccc(OCCN5CCCCC5)cc4)cnc23)ccn1 [Dorsomorphin] (first compound 2 µM, partner dose 0.4 µM) | 69.9 | 106 | 87.6 | 35.8 | 115 | 24.8 | 58.8 | 228 | 166
4 | Oc1cc(-c2nc(-c3ccccc3)[nH]c2-c2ccncc2)ccc1Cl + O=C1NC(=O)/C(=C/c2ccc(-c3ccc(F)cc3O)o2)S1 [AS252424] (first compound 0.2 µM, partner dose 1 µM) | 191 | 58.9 | 158 | 31.4 | 132 | 37.2 | 51 | 254 | 135
5 | COC(=O)c1sccc1S(=O)(=O)Nc1ccc(Nc2ccccc2)cc1OC + Cn1cc(/C=C2\C(=O)Nc3cccnc32)c2ccccc21 [GW441756] (first compound 1 µM, partner dose 0.4 µM) | 118 | 53.4 | 43.7 | 76.5 | 71.2 | 86.9 | 134 | 71.2 | 95.1
6 | COc1cc2c(Oc3ccc4[nH]c(C)cc4c3F)ncnc2cc1OCCCN1CCCC1 [cediranib] + CCCCCCCCCCCC1=C(O)C(=O)C=C(O)C1=O [Embelin] (first compound 0.4 µM, partner dose 1.2 µM) | 176 | 48.9 | 37 | 37.6 | 152 | 464 | 49.6 | 92.9 | 99.7
7 | CCc1ccc(CCOc2ccc(CC3SC(=O)NC3=O)cc2)nc1 (stereo unspecified) [pioglitazone] + COc1cc(N2CCC(N3CCN(C)CC3)CC2)ccc1Nc1ncc(Cl)c(Nc2ccccc2S(=O)(=O)C(C)C)n1 [NVP-TAE684] (first compound 2 µM, partner dose 0.08 µM) | 117 | 136 | 113 | 84 | 220 | 244 | 106 | 127 | 81
8 | O=C(O)c1ccc(-c2c[nH]c3ncc(-c4ccccc4)cc23)cc1C1CCCC1 + COC(=O)c1sccc1S(=O)(=O)Nc1ccc(Nc2ccccc2)cc1OC [GSK0660] (first compound 0.16 µM, partner dose 1 µM) | 60 | 62.9 | 87.4 | 65 | 147 | 104 | 32.8 | 43.8 | 43.4
9 | COc1ccc2c(c1)CCC1C2CCC2(C)C(NCCCCCCN3C(=O)C=CC3=O)CCC12 (stereo unspecified) + O=C1NC(=O)/C(=C/c2ccc(-c3ccc(F)cc3O)o2)S1 [AS252424] (first compound 0.4 µM, partner dose 1 µM) | 31.1 | 50.8 | 54.7 | 56.7 | 86.8 | 164 | 25.5 | 99.3 | 46.3
10 | NCC(=O)Nc1ccc(-n2nc(C(F)(F)F)cc2-c2ccc3c(ccc4ccccc43)c2)cc1 + CCc1ccc(CCOc2ccc(CC3SC(=O)NC3=O)cc2)nc1 [pioglitazone] (first compound 1 µM, partner dose 2 µM) | 42.6 | 194 | 86.8 | 46.2 | 249 | 96.9 | 36.3 | 173 | 54.1
11 | COC(=O)c1sccc1S(=O)(=O)Nc1ccc(Nc2ccccc2)cc1OC + O=C1NC(=O)/C(=C/c2ccc(-c3ccc(F)cc3O)o2)S1 [AS252424] (first compound 1 µM, partner dose 1 µM) | 52.1 | 211 | 275 | 104 | 117 | 49.1 | 32.4 | 88 | 76.7
12 | Oc1cc(-c2nc(-c3ccccc3)[nH]c2-c2ccncc2)ccc1Cl + Cn1cc(/C=C2\C(=O)Nc3cccnc32)c2ccccc21 [GW441756] (first compound 0.2 µM, partner dose 0.4 µM) | 63.3 | 92.8 | 34.9 | 84.8 | 220 | 113 | 83.4 | 150 | 510
13 | COC(=O)c1sccc1S(=O)(=O)Nc1ccc(Nc2ccccc2)cc1OC + O=c1cc(-c2cccc3c2Sc2ccccc2S3)oc(N2CCOCC2)c1 [KU55933] (first compound 1 µM, partner dose 1 µM) | 198 | 216 | 93.7 | 117 | 88.1 | 49.7 | 121 | 111 | 45.9
14 | CCN(CC)CCCCNc1ncc2cc(-c3cc(OC)cc(OC)c3)c(NC(=O)NC(C)(C)C)nc2n1 + O=C1NC(=O)/C(=C/c2ccc(-c3ccc(F)cc3O)o2)S1 [AS252424] (first compound 0.1 µM, partner dose 1 µM) | 70.4 | 55.8 | 40 | 19.8 | 108 | 33.5 | 127 | 127 | 109
15 | N#Cc1c(O)c2c(-c3ccc(-c4ccccc4O)cc3)csc2[nH]c1=O + CCN(CC)CCCCNc1ncc2cc(-c3cc(OC)cc(OC)c3)c(NC(=O)NC(C)(C)C)nc2n1 [PD173074] (first compound 2 µM, partner dose 0.1 µM) | 194 | 28.1 | 80.4 | 91.8 | 140 | 472 | 87.6 | 191 | 119
16 | O=C(O)c1ccc(-c2c[nH]c3ncc(-c4ccccc4)cc23)cc1C1CCCC1 + Cn1cc(/C=C2\C(=O)Nc3cccnc32)c2ccccc21 [GW441756] (first compound 0.16 µM, partner dose 0.4 µM) | 91.3 | 128 | 73.8 | 86.2 | 68.9 | 21.1 | 92.9 | 33.4 | 106
17 | COC(=O)c1sccc1S(=O)(=O)Nc1ccc(Nc2ccccc2)cc1OC + CCCCCCCCCCCC1=C(O)C(=O)C=C(O)C1=O [Embelin] (first compound 1 µM, partner dose 1.2 µM) | 159 | 141 | 91.1 | 49.1 | 143 | 33.2 | 111 | 134 | 92.6
18 | N#Cc1c(O)c2c(-c3ccc(-c4ccccc4O)cc3)csc2[nH]c1=O + Oc1cc(-c2nc(-c3ccccc3)[nH]c2-c2ccncc2)ccc1Cl [L779450] (first compound 2 µM, partner dose 0.2 µM) | 125 | 37.7 | 88.8 | 47.1 | 228 | 272 | 109 | 78.4 | 326
19 | COc1ccc(-c2ccc3c(N4CCOCC4)nc(N4C[C@@H](C)O[C@@H](C)C4)nc3n2)cc1CO + c1cc(-c2cnn3cc(-c4ccc(OCCN5CCCCC5)cc4)cnc23)ccn1 [Dorsomorphin] (first compound 0.02 µM, partner dose 0.4 µM) | 129 | 112 | 48.8 | 26.7 | 106 | 46.2 | 194 | 119 | 912
20 | NCC(=O)Nc1ccc(-n2nc(C(F)(F)F)cc2-c2ccc3c(ccc4ccccc43)c2)cc1 + Cc1cc([N+](=O)[O-])ccc1NS(=O)(=O)c1cc(Cl)ccc1Cl [FH535] (first compound 1 µM, partner dose 1 µM) | 116 | 181 | 64.4 | 29.2 | 114 | 49.3 | 72.6 | 180 | 139
21 | COc1cc2c(Oc3ccc4[nH]c(C)cc4c3F)ncnc2cc1OCCCN1CCCC1 [cediranib] + COC(=O)c1sccc1S(=O)(=O)Nc1ccc(Nc2ccccc2)cc1OC [GSK0660] (first compound 0.4 µM, partner dose 1 µM) | 43.8 | 196 | 87.8 | 51.3 | 71.8 | 42 | 39.4 | 149 | 41.6
22 | COc1cc2ncnc(Nc3ccc(Oc4ccccc4)cc3)c2cc1OC + c1cc(-c2cnn3cc(-c4ccc(OCCN5CCCCC5)cc4)cnc23)ccn1 [Dorsomorphin] (first compound 2 µM, partner dose 0.4 µM) | 47 | 61.4 | 67.3 | 21.9 | 164 | 210 | 61.1 | 103 | 19.1
23 | O=C(O)c1ccc(-c2c[nH]c3ncc(-c4ccccc4)cc23)cc1C1CCCC1 + CCN(CC)CCCCNc1ncc2cc(-c3cc(OC)cc(OC)c3)c(NC(=O)NC(C)(C)C)nc2n1 [PD173074] (first compound 0.16 µM, partner dose 0.1 µM) | 93.4 | 128 | 74.3 | 47.1 | 115 | 38.8 | 119 | 98.6 | 109
24 | NCC(=O)Nc1ccc(-n2nc(C(F)(F)F)cc2-c2ccc3c(ccc4ccccc43)c2)cc1 + Cn1cc(/C=C2\C(=O)Nc3cccnc32)c2ccccc21 [GW441756] (first compound 1 µM, partner dose 0.4 µM) | 49.1 | 93.7 | 31.7 | 18.1 | 301 | 153 | 78.4 | 231 | 61.7

Just cleaved PARP positive nuclei fraction [3] [%] and cleaved PARP positive nuclei fraction [9] [%] (two entries from above):

| Row | SMILES | cleaved PARP positive nuclei fraction [3] [%] | cleaved PARP positive nuclei fraction [9] [%] |
| --- | --- | --- | --- |
| 11 | COC(=O)c1sccc1S(=O)(=O)Nc1ccc(Nc2ccccc2)cc1OC + O=C1NC(=O)/C(=C/c2ccc(-c3ccc(F)cc3O)o2)S1 [AS252424] (first compound 1 µM, partner dose 1 µM) | 275 | 76.7 |
| 22 | COc1cc2ncnc(Nc3ccc(Oc4ccccc4)cc3)c2cc1OC + c1cc(-c2cnn3cc(-c4ccc(OCCN5CCCCC5)cc4)cnc23)ccn1 [Dorsomorphin] (first compound 2 µM, partner dose 0.4 µM) | 67.3 | 19.1 |
